No constants are given. Whether binding was seen depends on the method and setting. In cells and extracts the contact can be indirect. Some binding calls cover weakened binding; strength is not graded here.
Key:
[1] = target: Elavl2-Myc (UniProt Q60899); assay: co-IP; exogenous Co-IP in lysate of C17.2 cells transfected with Vector or Elavl2-Myc; antibody (Myc antibody listed) on Protein G magnetic beads, overnight at 4 °C, read by immunoblotting
[2] = target: Elavl2 (mouse (endogenous in C17.2)) (UniProt Q60899); assay: co-IP; endogenous Co-IP in C17.2 lysate; ApoM or Elavl2 antibody on Protein G magnetic beads, overnight at 4 °C, IgG as negative control, read by immunoblotting

Amino acid sequences for entries named in this document (tags omitted).
UniProt Q60899: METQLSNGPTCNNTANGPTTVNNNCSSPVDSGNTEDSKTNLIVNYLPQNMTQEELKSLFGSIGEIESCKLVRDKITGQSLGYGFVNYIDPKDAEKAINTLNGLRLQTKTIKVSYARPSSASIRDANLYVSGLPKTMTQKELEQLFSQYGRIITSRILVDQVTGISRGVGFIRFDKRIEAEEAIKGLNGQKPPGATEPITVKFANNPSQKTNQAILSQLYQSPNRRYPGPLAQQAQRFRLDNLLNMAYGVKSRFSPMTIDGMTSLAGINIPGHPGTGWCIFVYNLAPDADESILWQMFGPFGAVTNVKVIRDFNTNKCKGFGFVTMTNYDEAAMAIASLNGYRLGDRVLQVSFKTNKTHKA
UniProt Q9Z1R3: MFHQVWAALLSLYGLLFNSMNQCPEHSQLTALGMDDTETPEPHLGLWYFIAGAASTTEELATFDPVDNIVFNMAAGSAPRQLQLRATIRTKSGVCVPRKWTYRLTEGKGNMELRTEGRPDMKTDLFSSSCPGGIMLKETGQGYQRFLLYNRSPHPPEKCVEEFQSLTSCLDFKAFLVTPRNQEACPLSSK

With “apolipoprotein M (ApoM) (from UniProt Q9Z1R3 1-190)” the binding [1] was “binds” and the binding [2] was “binds”.
